The nature of the test: qHTS Assay for Modulators of Lamin A Splicing. As to conditions: HeLa LMNA splicing GFP/RFP minigene ratio, 48 h. Summed up:
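Read-out is the ratio of GFP to DsRed2 object intensity, acquired by 488 nm laser-scanning cytometry on HeLa lamin A-EGFP minigene reporter cells. Compound incubation 48 hrs at 37 °C in Opti-MEM with 2% FBS; DMSO 0.5% final.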

[1] abbreviates: measured here: GFP splicing reporter channel.
Where [2] appears, read: measured here: RFP viability control channel.

Structures are written as SMILES. Values joined by “and” are separate entries in the source; they are usually repeats but may differ in a detail not shown here. Equal entries are not always repeated. Some of the results follow. Further columns of the screen follow, without active or inactive calls. The list favours compounds with an active or inconclusive main result. Potencies come from curve fits of mixed quality, noted in brackets.

Take `Nn1c(Cc2ccccc2F)nnc1SCCOc1ccc(Cl)cc1`: the AC50 reads like this: under setting [1], 11.2 µM [rising, partial curve]; under setting [2], 35.5 µM [rising, single point].
As to `CCn1c(=O)c2c(nc3n2CCN3c2ccccc2)n(C)c1=O`, the AC50 under setting [1] was 0.891 µM [rising, partial curve].
As to `C=C1CCC2[C@](C)(CO)C(O)CC[C@]2(C)C1C/C=C1/C(=O)OCC1O` (stereo partly drawn), the AC50 runs as follows: under setting [1], 4.47 µM [rising, single point]; under setting [2], 1.41 µM [rising, full curve].
For the molecule `Cc1noc(C)c1C(=O)Nc1nc(-c2ccccc2Cl)cs1`, under setting [2], the AC50 is 12.6 µM [rising, partial curve, poor fit].
Same read-out and setting: the same measure for `Cc1[nH]n(-c2ccccc2)c(=O)c1C(C[N+](=O)[O-])c1ccc(Br)cc1` (stereo not drawn): 10 µM [rising, single point]; for `CC(=O)Nn1cc2c(c1-c1ccccc1)c(=O)n(C)c(=O)n2C`: 10 µM [rising, partial curve, poor fit]; for `O=C(c1cccc(COc2ccc(Cl)cc2Cl)c1)N1CCN(c2ccccn2)CC1`: 31.6 µM [rising, single point].
As to `Clc1ccc(CC[C@H](Cn2ccnc2)Sc2c(Cl)cccc2Cl)cc1`, under setting [2], the AC50 is 0.224 µM [rising, full curve].
On the same count and under the same terms, with `O=C1c2ccccc2CC1(Cc1ccccc1)Cc1ccccc1` the figure was 22.4 µM [rising, single point].
Same read-out and setting: the same measure for `COC(=O)c1nnn(CC(=O)NC(=O)Nc2ccccc2)c1C(=O)OC`: 1.41 µM [falling, partial curve, poor fit].
As to `O=C(Nc1ccc(F)cc1)C1CCN(c2nc3ccccc3n3cccc23)CC1`, the AC50 is, setting by setting: under setting [1], 7.08 µM [falling, partial curve, poor fit]; under setting [2], 0.224 µM [falling, full curve, poor fit].
Take `CCCCN(C)C(=O)C1CCN(Cc2ccc(OCc3ccccc3)cc2)CC1`: the AC50 under setting [2] was 35.5 µM [rising, single point].
Same read-out and setting: the same measure for `COc1cc(/C=N/NC(=S)NC2CC3CC2C2C=CCC32)ccc1O` (stereo not drawn): 22.4 µM [falling, single point].
Turning to `O=c1[nH]c(=O)n(Cc2ccccc2)c2nc(-c3ccc(Oc4ccc(F)cc4)c([N+](=O)[O-])c3)n(CCO)c12`, the AC50 is 35.5 µM [falling, single point] under setting [1] and 35.5 µM [falling, single point] under setting [2].
Take `Cc1ccc(CNC(=O)CN(c2cccc([N+](=O)[O-])c2)S(=O)(=O)c2ccccc2)cc1`: the AC50 under setting [2] was 14.1 µM [rising, single point].
Regarding `NS(=O)(=O)c1ccc(N/N=C/c2ccccn2)c([N+](=O)[O-])c1`, the AC50 is 25.1 µM [falling, partial curve] under setting [1] and 10 µM [falling, partial curve, poor fit] under setting [2].
On to `O=C1NC(=S)S/C1=C/c1ccc(N2CCOCC2)o1`, for which, under setting [2], the AC50 was 7.94 µM [rising, partial curve].
The same measure, in the same setting: with `CCOCCCNS(=O)(=O)c1ccc2c(c1)CCN2C(C)=O` the figure was 14.1 µM [rising, single point].
Consider `CCn1c(=O)c2c(cnn2C)c2ccccc21`, for which the AC50 reads like this: under setting [1], 0.794 µM [rising, full curve, poor fit]; under setting [2], 3.98 µM [rising, full curve].
With `COc1ccccc1NC(=O)N1CCC(c2nc3ccccc3o2)CC1`, the AC50 under setting [2] was 0.0282 µM [falling, full curve, poor fit].
Still for that read-out and setting: the same measure for `Cc1ccc(S(=O)(=O)CCC(=O)OCC(=O)NCc2ccc(Cl)cc2)cc1`: 3.98 µM [rising, partial curve, poor fit].
`CC(C)NS(=O)(=O)c1ccc2c3c(cccc13)CC2`: the AC50 is 20 µM [falling, single point] under setting [1] and 35.5 µM [falling, single point] under setting [2].
For the molecule `CCOC(=O)C1(CCCc2ccccc2)CCN(C2CCSCC2)CC1`, the AC50 under setting [1] was 35.5 µM [falling, single point].
For `COc1ccccc1N1CCN(C(=O)CSc2nc3ccccc3nc2Cc2ccc(F)cc2)CC1`, the AC50 under setting [1] is 1 µM [rising, full curve, poor fit] and the AC50 under setting [2] is 3.16 µM [rising, full curve].
In the case of `Cc1c(Nc2nc(-c3ccc(Cl)cc3)cs2)c(=O)n(-c2ccccc2)n1C`, the AC50 under setting [2] is 31.6 µM [rising, partial curve].
`Cc1ccc(/C=[N+](\[O-])c2ccc(N(C)C)cc2)c2nsnc12`: the AC50 under setting [2] is 22.4 µM [rising, single point].
As to `Fc1ccc(Oc2nc(-c3ccccn3)nc3ccccc23)cc1`, the AC50 reads like this: under setting [1], 35.5 µM [rising, single point]; under setting [2], 11.2 µM [rising, partial curve].
Regarding `NCCCC(N)(C(=O)O)C(F)F` (stereo not drawn), the AC50 was 8.91 µM [rising, partial curve] and 1.78 µM [rising, full curve, poor fit] under setting [1]; 7.08 µM [rising, partial curve, poor fit] and 12.6 µM [rising, single point] under setting [2].
On to `Cc1ccccc1NCc1cccn1-c1nnc(N2CCOCC2)s1`, for which, under setting [1], the AC50 is 10 µM [falling, partial curve, poor fit].
For `CC(Oc1cc(F)ccc1[N+](=O)[O-])C(=O)Nc1ccc(S(=O)(=O)N2CCCC2)cc1` (stereo not drawn), the AC50 under setting [1] was 3.16 µM [falling, partial curve, poor fit].
As to `CN(C)CCCn1c(SCC(=O)N2c3ccccc3Sc3ccccc32)nc2ccccc2c1=O`, the AC50 is 35.5 µM [falling, single point] under setting [1] and 20 µM [falling, single point] under setting [2].
Take `C/C(=N\Nc1ccc(Cl)cc1)c1c(O)cc(C)oc1=O`: the half-maximal activity concentration (AC50) is 7.08 µM [rising, partial curve, poor fit] under setting [1] and 10 µM [rising, single point] under setting [2].
Consider `O=C(Nc1ccc([N+](=O)[O-])cc1)Nc1ccc([N+](=O)[O-])cc1`, for which, under setting [1], the AC50 is 22.4 µM [falling, single point].
Regarding `Cc1ccc(C(=O)Nc2ccc3c(c2)N(C)C(=O)c2ccccc2S3)cc1`, the AC50 under setting [2] was 10 µM [rising, partial curve, poor fit].
Regarding `CCCS(=O)(=O)N1CC(=O)N(c2ccccc2F)C(C)(C(=O)NC2CCCCCC2)C1` (stereo not drawn), the AC50 was 0.0178 µM [falling, full curve, poor fit] under setting [1] and 0.02 µM [falling, full curve, poor fit] under setting [2].
Consider `COc1ccccc1CN1CCNC(=O)C1CC(=O)NC1Cc2ccccc2C1` (stereo not drawn), for which the AC50 was 31.6 µM [falling, partial curve] under setting [1] and 0.0447 µM [falling, full curve, poor fit] under setting [2].
In the case of `COc1ccc(C(=O)C2CCN(S(=O)(=O)c3ccc4c(c3)OCCO4)CC2)cc1`, under setting [2], the AC50 is 22.4 µM [rising, single point].
For the molecule `CC(=O)Nc1ccc(S(=O)(=O)NC2=C(N3CCN(c4ccc(F)cc4)CC3)C(=O)c3ccccc3C2=O)cc1`, the AC50 under setting [1] was 25.1 µM [falling, single point].
On the same count and under the same terms, with `O=C(NCc1ccccn1)C1CCN(Cc2cccc(OCc3ccccc3)c2)CC1` the figure was 12.6 µM [rising, partial curve, poor fit].
In the case of `Cn1nc(C(=O)Nc2ccc(S(=O)(=O)N3CCCCC3)cc2)ccc1=O`, the AC50 was 35.5 µM [rising, single point] under setting [1] and 35.5 µM [rising, single point] under setting [2].
For the molecule `COc1ccc(OC)c(CCNC(=O)CSc2ccsc2[N+](=O)[O-])c1`, the AC50 under setting [2] is 10 µM [rising, partial curve, poor fit].
Same read-out and setting: with `Cn1c(SCC(=O)Nc2ccc(N3CCOCC3)c(Cl)c2)nnc1C(O)c1ccccc1` (stereo not drawn) the figure was 22.4 µM [rising, single point].
For `Cc1ccc(C)n1NC(=O)c1ccco1`, the AC50 by setting is: under setting [1], 0.355 µM [falling, partial curve, poor fit]; under setting [2], 1.78 µM [falling, partial curve, poor fit].
Take `Cc1ccc(S(=O)(=O)N(C)c2ccc(OCC(=O)Nc3nc4ccccc4s3)cc2)cc1`: the AC50 was 3.98 µM [rising, full curve, poor fit] under setting [1] and 3.98 µM [rising, full curve] under setting [2].
For `NNc1nc2c(-c3ccc(Cl)cc3)nnn2c2ccccc12`, the concentration at half-maximal activity (AC50) under setting [1] was 12.6 µM [falling, single point].
For `CCOc1ccc(Br)cc1S(=O)(=O)Nc1ccc(C(=O)OC(C)C(=O)N(C)c2ccccc2)cc1` (stereo not drawn), the AC50 by setting is: under setting [1], 12.6 µM [rising, single point]; under setting [2], 14.1 µM [rising, single point].
As for `CN(CC(=O)Nc1ccccc1Sc1ccccc1)Cc1nc2ccccc2c(=O)[nH]1`, the concentration at half-maximal activity (AC50) under setting [2] is 35.5 µM [rising, partial curve, poor fit].
Same read-out and setting: the same measure for `O=C(Cc1ccc(Cl)cc1)Nc1cccc(S(=O)(=O)Nc2ccccc2F)c1`: 28.2 µM [rising, single point].
In the case of `Oc1ccc(/C=C/c2nc(-c3ccccc3O)n(-c3ccccc3)n2)cc1`, the AC50 reads like this: under setting [1], 25.1 µM [falling, single point]; under setting [2], 22.4 µM [falling, single point].
On to `O=C(CCN1CCCCC1)NNC(=O)C12CC3CC(CC(C3)C1)C2`, for which the AC50 under setting [2] is 0.02 µM [rising, full curve, poor fit].
On the same count and under the same terms, with `O=S(=O)(Nc1nc2ccccc2nc1N1CCc2ccccc2C1)c1ccc(Br)cc1` the figure was 14.1 µM [rising, partial curve].
For `COc1cccc(CC2(CO)CCN(C(=O)NC3CCCCC3)CC2)c1`, the AC50 runs as follows: under setting [1], 3.98 µM [falling, full curve, poor fit]; under setting [2], 2.51 µM [falling, full curve, poor fit].
As to `CN(C(=O)CSc1nc2ccc(NC(=O)c3ccccc3)cc2s1)c1ccccc1`, the AC50 under setting [1] was 0.0794 µM [falling, full curve, poor fit].

Source of the values: PubChem BioAssay AID1487 (National Center for Advancing Translational Sciences (NCATS), 2009).
